Record: PubChem BioAssay AID504764 (Drosophila RNAi Screening Center, 2011)
Aim: 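Knock-downs that raise or lower a Notch target reporter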 (primary screen). Cell system: Drosophila Kc167 cells. Reagents: long dsRNA against Drosophila genes. Timing: about 5 days (4 days dsRNA, then 24 h after transfection). Challenge: transfection of constitutively active membrane-tethered Notch lacking the extracellular domain, read 24 h later. Measurement: 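Light from a Notch-responsive E(spl)m3 luciferase reporter under active Notch, with control-promoter and no-Notch reporter wells to normalise; raw counts from paired wells a and b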. Direction: induced reporter light, run 1, well a and induced reporter light, run 1, well b: higher = more light from the Notch target reporter with active Notch; control promoter light, run 1, well a and control promoter light, run 1, well b: higher = more light from the viral control promoter (cell number, transfection, viability); uninduced reporter light, run 1, well a: higher = more light from the Notch target reporter without active Notch. Hit rule: 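Hit if the duplicate-averaged log2 ratio of induced to control-promoter light gives a plate-wise z beyond ±2, or induced to uninduced beyond ±1.8; weak-control or discordant-duplicate wells dropped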. Calls: active = modifier hit (raised or lowered Notch signal); inactive = not a hit.
The screen tested about 22,000 reagents; this is an unselected part of those with a known target gene and a result. Over the whole deposit, 403 (1.9%) are marked active. 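Unnormalised raw counts per well; ratio z-scores behind the hit calls and whether each hit raises or lowers signal are not deposited.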 Names joined by + are all predicted targets of the reagent. Reagent sequences are not shown. Not stated in the record: the amount of reagent.

Rpn1 [DRSC11274] showed induced reporter light, run 1, well a = 7575; induced reporter light, run 1, well b = 6765; control promoter light, run 1, well a = 5480; control promoter light, run 1, well b = 6855; uninduced reporter light, run 1, well a = 1120; inactive.
rb [DRSC18826] gave induced reporter light, run 1, well a = 2.20e5; induced reporter light, run 1, well b = 2.44e5; control promoter light, run 1, well a = 3.64e5; control promoter light, run 1, well b = 3.55e5; uninduced reporter light, run 1, well a = 16778; inactive.
Silencing of Orc2 [DRSC16776] resulted in: induced reporter light, run 1, well a = 1.44e5; induced reporter light, run 1, well b = 1.29e5; control promoter light, run 1, well a = 96700; control promoter light, run 1, well b = 82535; uninduced reporter light, run 1, well a = 9920; inactive.
Silencing of CG5171 [DRSC02823] gave: induced reporter light, run 1, well a = 2.02e5; induced reporter light, run 1, well b = 2.15e5; control promoter light, run 1, well a = 2.65e5; control promoter light, run 1, well b = 2.76e5; uninduced reporter light, run 1, well a = 18755; inactive.
With knock-down of CG3342 [DRSC18304] the results were induced reporter light, run 1, well a = 2.10e5; induced reporter light, run 1, well b = 2.09e5; control promoter light, run 1, well a = 2.30e5; control promoter light, run 1, well b = 2.38e5; uninduced reporter light, run 1, well a = 13910; inactive.
Against CG13051 [DRSC09932] the deposit lists induced reporter light, run 1, well a = 2.67e5; induced reporter light, run 1, well b = 2.46e5; control promoter light, run 1, well a = 3.00e5; control promoter light, run 1, well b = 2.09e5; uninduced reporter light, run 1, well a = 9075; inactive.
Knock-down of Ser [DRSC16856] resulted in: induced reporter light, run 1, well a = 1.84e5; induced reporter light, run 1, well b = 1.71e5; control promoter light, run 1, well a = 3.06e5; control promoter light, run 1, well b = 2.31e5; uninduced reporter light, run 1, well a = 16930; inactive.
wupA [DRSC20385] gave induced reporter light, run 1, well a = 63610; induced reporter light, run 1, well b = 78195; control promoter light, run 1, well a = 73790; control promoter light, run 1, well b = 60970; uninduced reporter light, run 1, well a = 8260; inactive.
Against CG14277 [DRSC02380], the values are induced reporter light, run 1, well a = 1.55e5; induced reporter light, run 1, well b = 1.87e5; control promoter light, run 1, well a = 93945; control promoter light, run 1, well b = 1.30e5; uninduced reporter light, run 1, well a = 24865; inactive.
With knock-down of omd [DRSC16507], the record shows induced reporter light, run 1, well a = 80230; induced reporter light, run 1, well b = 74205; control promoter light, run 1, well a = 31525; control promoter light, run 1, well b = 31235; uninduced reporter light, run 1, well a = 18870; inactive.
After knock-down of CG31418 [DRSC21780], the record shows inactive.
With knock-down of CG34210 [DRSC04579] the results were induced reporter light, run 1, well a = 1.66e5; induced reporter light, run 1, well b = 1.46e5; control promoter light, run 1, well a = 1.43e5; control promoter light, run 1, well b = 1.44e5; uninduced reporter light, run 1, well a = 11230; inactive.
Depletion of seq [DRSC06863] came out at: induced reporter light, run 1, well a = 16650; induced reporter light, run 1, well b = 16605; control promoter light, run 1, well a = 18500; control promoter light, run 1, well b = 15815; uninduced reporter light, run 1, well a = 3990; inactive.
After knock-down of beta3GalTII [DRSC07253] the results were induced reporter light, run 1, well a = 1.51e5; induced reporter light, run 1, well b = 1.65e5; control promoter light, run 1, well a = 2.01e5; control promoter light, run 1, well b = 1.70e5; uninduced reporter light, run 1, well a = 12920; inactive.
CG14453 [DRSC11710] scored induced reporter light, run 1, well a = 1.18e5; induced reporter light, run 1, well b = 1.14e5; control promoter light, run 1, well a = 87820; control promoter light, run 1, well b = 1.03e5; uninduced reporter light, run 1, well a = 6365; inactive.
After knock-down of CG10492 [DRSC02064] the results were induced reporter light, run 1, well a = 40110; induced reporter light, run 1, well b = 40520; control promoter light, run 1, well a = 19855; control promoter light, run 1, well b = 19880; uninduced reporter light, run 1, well a = 9255; inactive.
After knock-down of CG18268 + CG3014 [DRSC15319], the screen gave induced reporter light, run 1, well a = 87770; induced reporter light, run 1, well b = 76500; control promoter light, run 1, well a = 87090; control promoter light, run 1, well b = 63355; uninduced reporter light, run 1, well a = 8270; inactive.
CG30158 [DRSC04956] gave induced reporter light, run 1, well a = 37800; induced reporter light, run 1, well b = 48895; control promoter light, run 1, well a = 60045; control promoter light, run 1, well b = 63265; uninduced reporter light, run 1, well a = 2175; inactive.
For CG30158 [DRSC04974] the deposit lists induced reporter light, run 1, well a = 2.03e5; induced reporter light, run 1, well b = 1.97e5; control promoter light, run 1, well a = 1.99e5; control promoter light, run 1, well b = 2.16e5; uninduced reporter light, run 1, well a = 14982; inactive.
For CG30158 [DRSC04975], the values are induced reporter light, run 1, well a = 1.47e5; induced reporter light, run 1, well b = 1.57e5; control promoter light, run 1, well a = 1.84e5; control promoter light, run 1, well b = 1.52e5; uninduced reporter light, run 1, well a = 12970; inactive.
For CG30158 [DRSC05012] the deposit lists induced reporter light, run 1, well a = 1.49e5; induced reporter light, run 1, well b = 1.52e5; control promoter light, run 1, well a = 1.88e5; control promoter light, run 1, well b = 1.70e5; uninduced reporter light, run 1, well a = 12170; inactive.

Ordered by “induced reporter light, run 1, well b” (ascending): some entries from above
CG3342 [DRSC18304] | induced reporter light, run 1, well a: 2.10e5; induced reporter light, run 1, well b: 2.09e5; control promoter light, run 1, well a: 2.30e5; control promoter light, run 1, well b: 2.38e5; uninduced reporter light, run 1, well a: 13910; call: inactive
CG5171 [DRSC02823] | induced reporter light, run 1, well a: 2.02e5; induced reporter light, run 1, well b: 2.15e5; control promoter light, run 1, well a: 2.65e5; control promoter light, run 1, well b: 2.76e5; uninduced reporter light, run 1, well a: 18755; call: inactive
CG13051 [DRSC09932] | induced reporter light, run 1, well a: 2.67e5; induced reporter light, run 1, well b: 2.46e5; control promoter light, run 1, well a: 3.00e5; control promoter light, run 1, well b: 2.09e5; uninduced reporter light, run 1, well a: 9075; call: inactive
